# Reference: the supplement of paper PMC12823440, “Inhibitors supercharge kinase turnover through native proteolytic circuits” (Nature, 2025)
# Protein sequences, listed by entry. Tags and fused reporters are not part of them. Lines headed by an entry give the natural chain unless they say otherwise; changes in a name come on top.
# UniProt Q15208: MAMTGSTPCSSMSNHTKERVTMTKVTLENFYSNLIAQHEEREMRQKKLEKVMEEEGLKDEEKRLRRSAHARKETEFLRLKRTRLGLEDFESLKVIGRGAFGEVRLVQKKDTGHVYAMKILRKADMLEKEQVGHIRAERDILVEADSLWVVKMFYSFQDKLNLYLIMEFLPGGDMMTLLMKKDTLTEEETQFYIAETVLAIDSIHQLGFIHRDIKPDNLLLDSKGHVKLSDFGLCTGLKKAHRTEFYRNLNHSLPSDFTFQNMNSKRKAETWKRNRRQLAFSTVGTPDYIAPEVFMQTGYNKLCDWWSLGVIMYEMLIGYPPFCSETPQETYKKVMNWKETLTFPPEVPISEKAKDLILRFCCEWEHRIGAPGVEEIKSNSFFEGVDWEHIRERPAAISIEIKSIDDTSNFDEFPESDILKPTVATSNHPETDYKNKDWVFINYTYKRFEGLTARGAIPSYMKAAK
# UniProt P42680: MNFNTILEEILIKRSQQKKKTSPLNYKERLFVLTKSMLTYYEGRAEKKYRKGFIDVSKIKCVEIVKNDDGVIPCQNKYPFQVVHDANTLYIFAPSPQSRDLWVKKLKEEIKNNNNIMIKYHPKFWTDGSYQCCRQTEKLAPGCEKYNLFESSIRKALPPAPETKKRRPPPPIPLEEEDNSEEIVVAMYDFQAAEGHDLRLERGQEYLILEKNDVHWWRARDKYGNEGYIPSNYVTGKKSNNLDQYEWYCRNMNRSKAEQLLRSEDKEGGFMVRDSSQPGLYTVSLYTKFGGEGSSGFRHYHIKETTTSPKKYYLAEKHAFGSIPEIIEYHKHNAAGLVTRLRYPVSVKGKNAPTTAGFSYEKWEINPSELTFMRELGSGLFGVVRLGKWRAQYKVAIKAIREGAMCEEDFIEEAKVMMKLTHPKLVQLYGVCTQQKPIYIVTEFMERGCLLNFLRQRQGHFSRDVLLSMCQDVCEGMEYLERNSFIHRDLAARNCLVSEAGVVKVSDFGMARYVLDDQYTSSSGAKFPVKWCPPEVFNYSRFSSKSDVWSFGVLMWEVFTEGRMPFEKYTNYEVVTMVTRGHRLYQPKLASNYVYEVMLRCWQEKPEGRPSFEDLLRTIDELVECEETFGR
# UniProt P29597: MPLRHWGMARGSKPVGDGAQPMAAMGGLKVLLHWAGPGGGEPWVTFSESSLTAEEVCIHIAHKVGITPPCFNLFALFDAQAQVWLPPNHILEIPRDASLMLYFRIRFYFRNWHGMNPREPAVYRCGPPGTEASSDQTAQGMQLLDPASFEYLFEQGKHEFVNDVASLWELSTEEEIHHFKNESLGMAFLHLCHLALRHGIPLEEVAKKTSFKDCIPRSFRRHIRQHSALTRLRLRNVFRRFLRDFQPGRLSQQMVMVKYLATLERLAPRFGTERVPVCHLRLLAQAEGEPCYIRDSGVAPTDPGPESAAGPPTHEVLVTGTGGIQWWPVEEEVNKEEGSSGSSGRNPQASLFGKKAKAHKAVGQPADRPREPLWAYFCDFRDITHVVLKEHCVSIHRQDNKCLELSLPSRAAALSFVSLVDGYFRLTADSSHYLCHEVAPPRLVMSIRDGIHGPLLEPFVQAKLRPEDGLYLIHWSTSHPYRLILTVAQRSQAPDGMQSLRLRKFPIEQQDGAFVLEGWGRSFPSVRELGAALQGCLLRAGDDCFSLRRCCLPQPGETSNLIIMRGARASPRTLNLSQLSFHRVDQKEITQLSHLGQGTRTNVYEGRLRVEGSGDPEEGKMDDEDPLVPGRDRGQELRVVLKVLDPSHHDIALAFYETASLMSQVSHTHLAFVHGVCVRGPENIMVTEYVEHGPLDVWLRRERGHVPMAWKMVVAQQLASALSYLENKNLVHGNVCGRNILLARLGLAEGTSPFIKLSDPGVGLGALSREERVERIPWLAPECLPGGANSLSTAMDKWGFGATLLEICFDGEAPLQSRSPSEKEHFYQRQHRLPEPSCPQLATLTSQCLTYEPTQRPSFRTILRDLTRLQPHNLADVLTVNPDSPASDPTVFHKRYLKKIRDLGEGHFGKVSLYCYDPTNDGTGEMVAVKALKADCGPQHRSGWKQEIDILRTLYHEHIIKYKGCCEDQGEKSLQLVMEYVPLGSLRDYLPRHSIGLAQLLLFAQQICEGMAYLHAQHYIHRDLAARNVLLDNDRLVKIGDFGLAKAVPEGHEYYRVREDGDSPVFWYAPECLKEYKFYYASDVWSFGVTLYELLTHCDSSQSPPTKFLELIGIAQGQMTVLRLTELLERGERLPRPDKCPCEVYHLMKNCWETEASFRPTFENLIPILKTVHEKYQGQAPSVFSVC
# UniProt Q6PHR2: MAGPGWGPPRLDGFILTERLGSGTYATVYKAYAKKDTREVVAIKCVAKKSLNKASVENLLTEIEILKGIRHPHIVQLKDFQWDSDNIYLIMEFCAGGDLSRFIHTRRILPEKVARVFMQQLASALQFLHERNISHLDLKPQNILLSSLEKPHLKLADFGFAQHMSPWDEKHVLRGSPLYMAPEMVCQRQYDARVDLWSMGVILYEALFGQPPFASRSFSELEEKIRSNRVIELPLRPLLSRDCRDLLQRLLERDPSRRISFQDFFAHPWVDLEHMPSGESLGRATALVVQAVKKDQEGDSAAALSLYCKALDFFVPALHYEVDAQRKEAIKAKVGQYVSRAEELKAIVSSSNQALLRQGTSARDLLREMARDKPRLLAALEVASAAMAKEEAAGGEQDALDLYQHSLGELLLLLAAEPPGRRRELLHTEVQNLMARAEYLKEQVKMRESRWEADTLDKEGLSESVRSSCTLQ
# UniProt P07947, whole entry, looked up: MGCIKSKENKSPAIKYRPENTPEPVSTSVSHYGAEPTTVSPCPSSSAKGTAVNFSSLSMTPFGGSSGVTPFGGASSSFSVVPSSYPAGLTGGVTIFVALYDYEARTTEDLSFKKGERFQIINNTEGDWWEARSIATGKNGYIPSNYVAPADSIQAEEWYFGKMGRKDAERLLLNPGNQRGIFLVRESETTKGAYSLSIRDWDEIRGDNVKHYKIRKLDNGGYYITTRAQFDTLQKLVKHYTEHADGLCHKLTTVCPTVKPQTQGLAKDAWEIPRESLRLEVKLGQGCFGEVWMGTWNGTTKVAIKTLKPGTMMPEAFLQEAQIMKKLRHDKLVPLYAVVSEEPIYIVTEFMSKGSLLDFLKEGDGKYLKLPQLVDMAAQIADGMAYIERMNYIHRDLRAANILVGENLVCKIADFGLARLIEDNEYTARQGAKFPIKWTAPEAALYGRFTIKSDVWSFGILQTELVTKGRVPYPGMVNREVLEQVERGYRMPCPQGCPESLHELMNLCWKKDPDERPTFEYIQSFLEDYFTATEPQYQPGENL
# UniProt P31749: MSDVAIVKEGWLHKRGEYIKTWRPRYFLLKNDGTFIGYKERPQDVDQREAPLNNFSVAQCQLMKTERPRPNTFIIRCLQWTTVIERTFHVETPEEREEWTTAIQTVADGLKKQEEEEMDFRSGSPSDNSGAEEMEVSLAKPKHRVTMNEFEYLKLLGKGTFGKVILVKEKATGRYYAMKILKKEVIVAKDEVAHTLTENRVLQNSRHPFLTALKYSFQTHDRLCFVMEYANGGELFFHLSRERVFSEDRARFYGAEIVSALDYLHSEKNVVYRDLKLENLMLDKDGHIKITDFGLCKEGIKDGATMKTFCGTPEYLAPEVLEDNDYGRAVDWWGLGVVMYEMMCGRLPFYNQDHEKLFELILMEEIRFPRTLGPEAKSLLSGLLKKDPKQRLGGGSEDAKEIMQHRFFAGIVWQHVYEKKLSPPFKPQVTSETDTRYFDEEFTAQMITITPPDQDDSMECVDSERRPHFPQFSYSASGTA
# UniProt P10398: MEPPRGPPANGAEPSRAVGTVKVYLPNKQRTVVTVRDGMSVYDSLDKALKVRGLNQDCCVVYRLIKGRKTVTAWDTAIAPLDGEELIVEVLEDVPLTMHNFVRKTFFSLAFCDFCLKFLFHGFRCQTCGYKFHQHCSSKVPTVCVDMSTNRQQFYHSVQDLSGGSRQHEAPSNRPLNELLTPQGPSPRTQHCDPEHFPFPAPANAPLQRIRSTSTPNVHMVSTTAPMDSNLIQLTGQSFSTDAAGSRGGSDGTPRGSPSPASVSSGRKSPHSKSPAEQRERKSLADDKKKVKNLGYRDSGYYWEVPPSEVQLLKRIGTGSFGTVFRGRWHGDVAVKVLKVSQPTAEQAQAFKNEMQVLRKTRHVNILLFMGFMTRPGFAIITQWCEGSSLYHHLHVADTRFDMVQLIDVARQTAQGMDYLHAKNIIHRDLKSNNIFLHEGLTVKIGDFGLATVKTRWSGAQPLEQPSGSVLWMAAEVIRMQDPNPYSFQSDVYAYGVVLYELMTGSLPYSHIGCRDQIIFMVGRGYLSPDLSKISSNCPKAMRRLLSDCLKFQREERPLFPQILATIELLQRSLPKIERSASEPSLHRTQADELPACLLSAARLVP
# UniProt Q96GD4, whole entry: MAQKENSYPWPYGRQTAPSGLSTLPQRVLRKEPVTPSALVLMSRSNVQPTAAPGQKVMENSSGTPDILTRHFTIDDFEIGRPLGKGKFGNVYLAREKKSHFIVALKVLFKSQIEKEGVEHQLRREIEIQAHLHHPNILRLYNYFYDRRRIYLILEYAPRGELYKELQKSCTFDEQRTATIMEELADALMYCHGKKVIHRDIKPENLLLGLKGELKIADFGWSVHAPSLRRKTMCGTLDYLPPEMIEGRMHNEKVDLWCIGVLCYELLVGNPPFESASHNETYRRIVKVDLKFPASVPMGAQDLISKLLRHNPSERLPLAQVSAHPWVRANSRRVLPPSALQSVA
# UniProt Q9UQB9: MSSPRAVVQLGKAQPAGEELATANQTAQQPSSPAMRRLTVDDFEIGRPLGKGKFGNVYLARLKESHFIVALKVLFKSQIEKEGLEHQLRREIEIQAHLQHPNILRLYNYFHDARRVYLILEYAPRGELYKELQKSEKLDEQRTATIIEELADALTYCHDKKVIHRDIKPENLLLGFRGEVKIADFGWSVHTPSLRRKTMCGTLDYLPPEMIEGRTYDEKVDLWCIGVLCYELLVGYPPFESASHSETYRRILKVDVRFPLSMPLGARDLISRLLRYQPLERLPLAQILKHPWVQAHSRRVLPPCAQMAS
# UniProt P51813: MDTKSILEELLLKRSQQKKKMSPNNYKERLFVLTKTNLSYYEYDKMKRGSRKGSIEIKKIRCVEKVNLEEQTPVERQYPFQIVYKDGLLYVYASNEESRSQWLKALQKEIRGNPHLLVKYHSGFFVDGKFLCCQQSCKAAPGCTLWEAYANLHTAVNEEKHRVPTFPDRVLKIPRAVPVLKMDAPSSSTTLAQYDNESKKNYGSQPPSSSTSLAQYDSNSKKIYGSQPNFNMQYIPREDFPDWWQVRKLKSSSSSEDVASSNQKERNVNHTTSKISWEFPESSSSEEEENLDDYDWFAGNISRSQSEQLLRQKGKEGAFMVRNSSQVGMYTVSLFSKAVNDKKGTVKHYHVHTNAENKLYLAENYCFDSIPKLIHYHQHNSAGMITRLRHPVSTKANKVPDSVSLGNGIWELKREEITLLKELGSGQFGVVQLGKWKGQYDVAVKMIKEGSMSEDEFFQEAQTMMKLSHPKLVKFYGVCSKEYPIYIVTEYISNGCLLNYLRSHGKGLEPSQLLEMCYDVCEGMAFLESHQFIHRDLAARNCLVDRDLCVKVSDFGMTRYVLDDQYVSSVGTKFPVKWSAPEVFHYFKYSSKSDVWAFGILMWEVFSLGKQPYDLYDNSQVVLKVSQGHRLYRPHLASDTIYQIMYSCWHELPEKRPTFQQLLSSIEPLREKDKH
# UniProt P15056, whole entry, looked up: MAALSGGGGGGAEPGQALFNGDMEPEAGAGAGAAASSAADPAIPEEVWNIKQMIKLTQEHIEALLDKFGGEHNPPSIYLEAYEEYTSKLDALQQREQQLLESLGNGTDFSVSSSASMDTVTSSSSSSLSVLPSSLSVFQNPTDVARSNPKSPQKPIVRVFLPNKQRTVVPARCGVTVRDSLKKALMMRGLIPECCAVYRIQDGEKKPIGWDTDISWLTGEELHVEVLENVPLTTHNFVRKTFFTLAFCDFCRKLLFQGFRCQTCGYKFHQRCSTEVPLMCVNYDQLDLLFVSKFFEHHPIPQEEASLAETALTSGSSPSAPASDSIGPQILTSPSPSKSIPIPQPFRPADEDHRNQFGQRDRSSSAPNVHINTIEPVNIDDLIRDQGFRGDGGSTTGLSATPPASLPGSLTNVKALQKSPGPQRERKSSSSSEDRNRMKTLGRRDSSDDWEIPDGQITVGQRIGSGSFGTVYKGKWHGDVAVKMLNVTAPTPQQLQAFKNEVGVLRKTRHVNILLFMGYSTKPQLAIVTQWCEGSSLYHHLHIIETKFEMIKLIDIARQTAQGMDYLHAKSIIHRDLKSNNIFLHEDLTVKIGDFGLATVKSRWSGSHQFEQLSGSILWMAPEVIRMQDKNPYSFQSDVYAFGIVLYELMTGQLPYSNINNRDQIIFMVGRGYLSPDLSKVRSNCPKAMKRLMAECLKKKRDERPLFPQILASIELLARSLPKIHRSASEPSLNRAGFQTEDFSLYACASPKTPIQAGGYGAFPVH
# Where a name gives a salt, the structure may show the parent alone. The list shows a part of the results. Hit calls seldom repeat between salt and free forms of one compound.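 Kinases were expressed as nanoluciferase fusions in K562 cells and luminescence was read every 4 h between 2 and 18 h as percent of control, DMSO set to 100% and a positive control to 0%. A time point counts as decreased when the signal drops significantly (2 sigma). The hit call is the authors' own, does not follow from the count of time points alone, and its rule is not shown.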
# Key:
# Details in all cases: K562; 2-18 h
# STK38 = STK38 (UniProt Q15208); test: kinase-Nluc reporter destabilization hit call (1 = scored as downregulated) (binary); higher = compound decreases kinase abundance
# SYK = SYK (UniProt P43405); test: as above
# TEC = TEC (UniProt P42680); test: as above
# TYK2 = TYK2 (UniProt P29597); test: as above
# ULK3 = ULK3 (UniProt Q6PHR2); test: as above
# YES1 = YES1 (UniProt P07947); test: as above
# ZAK = ZAK (UniProt Q9NYL2); test: as above
# ZAP70 = ZAP70 (UniProt P43403); test: as above
# ABL1 = ABL1 (UniProt P00519); test: number of time points (of 5) at which kinase-Nluc abundance scored as decreased, DMSO-normalised (count); higher = more persistent destabilization
# AKT1 = AKT1 (UniProt P31749); test: as above
# ALK = ALK (UniProt Q9UM73); test: as above
# ARAF = ARAF (UniProt P10398); test: as above
# AURKA = AURKA (UniProt O14965); test: as above
# AURKB = AURKB (UniProt Q96GD4); test: as above
# AURKC = AURKC (UniProt Q9UQB9); test: as above
# BLK = BLK (UniProt P51451); test: as above
# BMX = BMX (UniProt P51813); test: as above
# BRAF = BRAF (UniProt P15056); test: as above
# BRAF_V600E = test: as above
# BTK = BTK (UniProt Q06187); test: as above
Compound,kinase-Nluc reporter destabilization hit call (STK38),kinase-Nluc reporter destabilization hit call (SYK),kinase-Nluc reporter destabilization hit call (TEC),kinase-Nluc reporter destabilization hit call (TYK2),kinase-Nluc reporter destabilization hit call (ULK3),kinase-Nluc reporter destabilization hit call (YES1),kinase-Nluc reporter destabilization hit call (ZAK),kinase-Nluc reporter destabilization hit call (ZAP70),number of time points (ABL1),number of time points (AKT1),number of time points (ALK),number of time points (ARAF),number of time points (AURKA),number of time points (AURKB),number of time points (AURKC),number of time points (BLK),number of time points (BMX),number of time points (BRAF),number of time points (BRAF_V600E),number of time points (BTK)
CN(C)CCCOc1ccc(-c2ccc3ncc4c(c3c2)n(C2CCOCC2)c(=O)n4C)cn1 (2 µM),inactive: 0,inactive: 0,inactive: 0,inactive: 0,inactive: 0,inactive: 0,inactive: 0,inactive: 0,0,0,0,0,0,0,0,0,0,0,0,0
NCCNS(=O)(=O)c1cccc2c(Cl)cccc12 [A-3 (hydrochloride)] (10 µM),inactive: 0,inactive: 0,inactive: 0,inactive: 0,inactive: 0,inactive: 0,inactive: 0,inactive: 0,0,0,0,0,0,0,0,0,0,0,0,0
O=C(Nc1cn[nH]c1-c1ccccn1)c1nn(C2CCNCC2)cc1Cl (10 µM),inactive: 0,inactive: 0,inactive: 0,inactive: 0,inactive: 0,inactive: 0,inactive: 0,inactive: 0,1,0,0,0,0,0,0,0,0,0,1,0
Nc1cc(C(F)(F)F)c(-c2cc(N3CCOCC3)nc(N3CCOCC3)n2)cn1 [Buparlisib (Hydrochloride)] (2.5 µM),inactive: 0,inactive: 0,inactive: 0,inactive: 0,inactive: 0,inactive: 0,inactive: 0,inactive: 0,2,0,0,0,0,0,0,0,0,0,1,0
CN1CCN(c2cnc3c(C4CCN(C(=O)c5ccc(OC(F)(F)F)cc5N)CC4)ncnc3c2)CC1 (10 µM),inactive: 0,inactive: 0,inactive: 0,inactive: 0,inactive: 0,inactive: 0,inactive: 0,inactive: 0,0,0,0,0,0,0,0,0,0,0,0,0
C[C@@H](c1ccc(F)cc1)n1nnc2cnc3ccc(-c4ccc5ocnc5c4)cc3c21 (10 µM),inactive: 0,inactive: 0,inactive: 0,inactive: 0,inactive: 0,inactive: 0,inactive: 0,inactive: 0,0,0,0,0,0,0,0,0,0,0,0,0
FC(F)(F)c1ccc(CNc2ccc(Cc3c[nH]c4ncccc34)cn2)cc1 (10 µM),inactive: 0,inactive: 0,inactive: 0,inactive: 0,inactive: 0,inactive: 0,inactive: 0,inactive: 0,0,0,0,0,0,0,0,0,0,0,0,0
Cc1cc(O)c2c(c1)C(=O)c1cc(O)cc(O)c1C2=O [Emodin] (10 µM),inactive: 0,inactive: 0,inactive: 0,inactive: 0,inactive: 0,inactive: 0,inactive: 0,inactive: 0,0,0,0,0,0,0,0,0,0,0,0,0
OCCn1cc(-c2ccc3c(c2)CC/C3=N\O)c(-c2ccncc2)n1 (10 µM),inactive: 0,inactive: 0,inactive: 0,inactive: 0,inactive: 0,inactive: 0,inactive: 0,inactive: 0,0,0,0,0,0,0,0,0,0,0,0,0
Nc1ccc(-c2cnc(N)c(-c3ccc(Cl)cc3)c2)cn1 (10 µM),inactive: 0,inactive: 0,inactive: 0,inactive: 0,inactive: 0,inactive: 0,inactive: 0,inactive: 0,0,0,0,0,0,0,0,0,0,0,0,0
